In US20100227806A1, “Use Of A Ghrelin Agonist To Improve Catabolic Effects Of Glucocorticoid Treatment” (priority 2006, published 2010):
For at least one compound, name, drawing or mass did not settle the structure.

Columns and labels:
[1] = 24-h food intake and food efficiency in treated young rats; type: in vivo, Sprague-Dawley rats
Text: FIG. 4. Panel A: the effect of the different pharmacological treatment on 24-h food intake expressed as a percent of the control value. Data represented the mean±SEM of nine determinations performed at irregular intervals from day 33 to day 47 after birth. Panel B: the effect of the different pharmacological treatments on food efficacy calculated as a ratio between food intake (g) and […] measured over the same time interval at different stages of growth. Data represents the meant SEM of eight rats. *P<0.05; **<0.01 vs SAL-treated rats (Dunnett's test). Panel C: the effect of the different pharmacological treatments on the cumulative food intake measured over the indicated time intervals at different stages of growth.
(§1) Beginning on the 23rd day (i.e., the animals were 23 days old), 16 of the study animals were treated intraperitoneally (Ip) daily with 40 μg/kg of either saline or dexamethasone sodium phosphate (sold under the trademark Decadron® by Merck Pharmaceuticals, West Point, Pa.). […] At irregular intervals, the cumulative food intake for a 24-hour period of time was measured. Beginning on the 46th day (i.e., the animals were 46 days old), the length of the test and control animals from nose to anus was measured (hereinafter referred to as “the nose-anal length”). […]

[2] = cited from earlier work
[3] = Effects of pharmacological treatments on growth parameters in dexamethasone-treated young rats; type: in vivo, Sprague-Dawley rats; settings: young male rats, FIG. 3; Dunnett's t test
Description: Thirty-two prepubertal male Sprague-Dawley rats approximately 21 days old and weighing between 45 and 55 grams, were obtained from Harlan, Italy (S. Pietro al Natisone, ITALY). During the study, the animals were maintained in accordance with the guidelines of the Italian Ministry of Health for the care and use of laboratory animals (Decreto legge 116/92). The animals were randomly divided into two treatment groups and kept in a controlled environment at a constant temperature of 21-23° C. with 12:12 light/dark exposure continuous period wherein the light exposure began at approximately 8:00 am and ended at approximately 8:00 pm. […]
as §1
Unless otherwise stated, the results reported in FIGS. 3-6 are expressed as the mean±SEM of eight replicate test subjects. […]

SMILES: C[C@@H]1C[C@H]2[C@@H]3CCC4=CC(=O)C=C[C@]4(C)[C@@]3(F)[C@@H](O)C[C@]2(C)[C@@]1(O)C(=O)CO [Dexamethasone, 9-fluoro-11β,17,21-trihydroxy-16a-methylpregna-1,4-diene-3,20-dione]
- food efficiency (ratio body weight gain / food intake) vs saline treatment ([1]; FIG. 4B, two out of three determinations): significantly reduced
- cumulative 24-hour food intake vs saline-treated animals ([1]; after 10 days from beginning of dexamethasone treatment, FIG. 4A): significant reduction
- anti-inflammatory and immunosuppressive potency relative to naturally-occurring hydrocortisone [2]: 40 times
- somatic growth as compared to SAL-treated rats [3]: significantly decreased
